{"source": "PubChem BioAssay AID1224829 (NIAID, 2016)", "purpose": "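Secondary check of hits that alter LPS-induced p65 translocation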 (follow-up of hits)", "system": "mouse RAW264.7 G9 macrophage reporter cells", "knock-down reagent": "single siRNA against mouse genes, 100 nM", "timing": "2 days of siRNA knock-down, then 40 min of LPS before fixing", "conditions": "LPS (Salmonella minnesota R595) at 10 ng/ml", "measurement": "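High-content images after 40 min LPS exposure; GFP-p65 nucleus to surrounding ring signal ratio, normalised to plate median and non-targeting control wells, expressed as z-score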", "direction": "p65 translocation z-score: higher = more nuclear NF-kappaB p65 after LPS", "active means": "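An siRNA is called active when the mean z-score of its two replicates is above 2 or below -2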", "meaning of the calls": "active = changed p65 translocation (either direction); inactive = no clear change", "note": "In all, the deposit lists about 3,800 reagents; below is a part drawn at random. 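Calls cover raised and lowered translocation; gene median uses one vendor's three siRNAs; qiagen siRNAs acted more weakly than ambion siRNAs.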 A number with no mark means an inactive call. Not all columns of the deposit are shown."}
{"gene": "Rab8a (GeneID 17274)", "PubChem SID": "SID315484515", "siRNA vendor or control pool": "ambion single siRNA", "p65 translocation z-score, replicate mean": -0.748, "p65 translocation z-score, replicate 1": -0.787}
{"gene": "Rab8a (GeneID 17274)", "PubChem SID": "SID315484516", "siRNA vendor or control pool": "ambion single siRNA", "p65 translocation z-score, replicate mean": -0.243, "p65 translocation z-score, replicate 1": 0.518}
{"gene": "Rab8a (GeneID 17274)", "PubChem SID": "SID315484517", "siRNA vendor or control pool": "ambion single siRNA", "p65 translocation z-score, replicate mean": 0.164, "p65 translocation z-score, replicate 1": 1.62}
{"gene": "Rab8a (GeneID 17274)", "PubChem SID": "SID315484518", "siRNA vendor or control pool": "qiagen single siRNA", "p65 translocation z-score, replicate mean": -1.73, "p65 translocation z-score, replicate 1": -2.68}
{"gene": "Rab8a (GeneID 17274)", "PubChem SID": "SID315484519", "siRNA vendor or control pool": "qiagen single siRNA", "p65 translocation z-score, replicate mean": -0.115, "p65 translocation z-score, replicate 1": -0.817}
{"gene": "Rab8a (GeneID 17274)", "PubChem SID": "SID315484520", "siRNA vendor or control pool": "qiagen single siRNA", "p65 translocation z-score, replicate mean": -0.611, "p65 translocation z-score, replicate 1": 0.131}
{"gene": "Rpl5 (GeneID 100503670)", "PubChem SID": "SID315484806", "siRNA vendor or control pool": "ambion single siRNA", "p65 translocation z-score, replicate mean": "-4.55 (active)", "p65 translocation z-score, replicate 1": -5.14}
{"gene": "Rpl5 (GeneID 100503670)", "PubChem SID": "SID315484807", "siRNA vendor or control pool": "ambion single siRNA", "p65 translocation z-score, replicate mean": "-2.28 (active)", "p65 translocation z-score, replicate 1": -1.7}
{"gene": "Rpl5 (GeneID 100503670)", "PubChem SID": "SID315484808", "siRNA vendor or control pool": "ambion single siRNA", "p65 translocation z-score, replicate mean": "-5.84 (active)", "p65 translocation z-score, replicate 1": -6.05}
{"gene": "Rpl5 (GeneID 100503670)", "PubChem SID": "SID315484809", "siRNA vendor or control pool": "qiagen single siRNA", "p65 translocation z-score, replicate mean": "-4.61 (active)", "p65 translocation z-score, replicate 1": -2.68}
{"gene": "Rpl5 (GeneID 100503670)", "PubChem SID": "SID315484810", "siRNA vendor or control pool": "qiagen single siRNA", "p65 translocation z-score, replicate mean": "-6.18 (active)", "p65 translocation z-score, replicate 1": -6.18}
{"gene": "Rpl5 (GeneID 100503670)", "PubChem SID": "SID315484811", "siRNA vendor or control pool": "qiagen single siRNA", "p65 translocation z-score, replicate mean": -1.94, "p65 translocation z-score, replicate 1": -0.637}
{"gene": "Supt6 (GeneID 20926)", "PubChem SID": "SID315484938", "siRNA vendor or control pool": "ambion single siRNA", "p65 translocation z-score, replicate mean": 1.05, "p65 translocation z-score, replicate 1": 2.19}
{"gene": "Supt6 (GeneID 20926)", "PubChem SID": "SID315484939", "siRNA vendor or control pool": "ambion single siRNA", "p65 translocation z-score, replicate mean": -0.435, "p65 translocation z-score, replicate 1": -0.553}
{"gene": "Supt6 (GeneID 20926)", "PubChem SID": "SID315484940", "siRNA vendor or control pool": "ambion single siRNA", "p65 translocation z-score, replicate mean": "-4.58 (active)", "p65 translocation z-score, replicate 1": -3.32}
{"gene": "Supt6 (GeneID 20926)", "PubChem SID": "SID315484941", "siRNA vendor or control pool": "qiagen single siRNA", "p65 translocation z-score, replicate mean": "-7.23 (active)", "p65 translocation z-score, replicate 1": -7.23}
{"gene": "Supt6 (GeneID 20926)", "PubChem SID": "SID315484942", "siRNA vendor or control pool": "qiagen single siRNA", "p65 translocation z-score, replicate mean": "-6.53 (active)", "p65 translocation z-score, replicate 1": -6.53}
{"gene": "Supt6 (GeneID 20926)", "PubChem SID": "SID315484943", "siRNA vendor or control pool": "qiagen single siRNA", "p65 translocation z-score, replicate mean": "-4.99 (active)", "p65 translocation z-score, replicate 1": -4.99}

As entered above:
For “p65 translocation z-score, replicate 1”, Supt6 (GeneID 20926) [SID315484940], siRNA vendor or control pool ambion single siRNA shows -3.32 (active)
Value of Supt6 (GeneID 20926) [SID315484943], siRNA vendor or control pool qiagen single siRNA in “p65 translocation z-score, replicate 1”: -4.99 (active)
Value of Rab8a (GeneID 17274) [SID315484517], siRNA vendor or control pool ambion single siRNA under “p65 translocation z-score, replicate mean”: 0.164
For “p65 translocation z-score, replicate 1”, Rpl5 (GeneID 100503670) [SID315484808], siRNA vendor or control pool ambion single siRNA is entered as -6.05 (active)
Supt6 (GeneID 20926) [SID315484938], siRNA vendor or control pool ambion single siRNA, p65 translocation z-score, replicate mean = 1.05

The list goes on.
{"gene": "Dpm2 (GeneID 13481)", "PubChem SID": "SID315484059", "siRNA vendor or control pool": "ambion single siRNA", "p65 translocation z-score, replicate mean": -0.208, "p65 translocation z-score, replicate 1": 0.57}
{"gene": "Dpm2 (GeneID 13481)", "PubChem SID": "SID315484060", "siRNA vendor or control pool": "ambion single siRNA", "p65 translocation z-score, replicate mean": -1.61, "p65 translocation z-score, replicate 1": -1.93}
{"gene": "Dpm2 (GeneID 13481)", "PubChem SID": "SID315484061", "siRNA vendor or control pool": "ambion single siRNA", "p65 translocation z-score, replicate mean": 0.129, "p65 translocation z-score, replicate 1": 1.5}
{"gene": "Dpm2 (GeneID 13481)", "PubChem SID": "SID315484062", "siRNA vendor or control pool": "qiagen single siRNA", "p65 translocation z-score, replicate mean": 1.75, "p65 translocation z-score, replicate 1": 0.683}
{"gene": "Dpm2 (GeneID 13481)", "PubChem SID": "SID315484063", "siRNA vendor or control pool": "qiagen single siRNA", "p65 translocation z-score, replicate mean": 0.536, "p65 translocation z-score, replicate 1": 0.863}
{"gene": "Dpm2 (GeneID 13481)", "PubChem SID": "SID315484064", "siRNA vendor or control pool": "qiagen single siRNA", "p65 translocation z-score, replicate mean": "-3.52 (active)", "p65 translocation z-score, replicate 1": -2.36}
{"gene": "Frey1 (GeneID 75641)", "PubChem SID": "SID315486825", "siRNA vendor or control pool": "ambion single siRNA", "p65 translocation z-score, replicate mean": -0.808, "p65 translocation z-score, replicate 1": -0.108}
{"gene": "Frey1 (GeneID 75641)", "PubChem SID": "SID315486826", "siRNA vendor or control pool": "ambion single siRNA", "p65 translocation z-score, replicate mean": "-3.19 (active)", "p65 translocation z-score, replicate 1": -3.41}
{"gene": "Frey1 (GeneID 75641)", "PubChem SID": "SID315486827", "siRNA vendor or control pool": "ambion single siRNA", "p65 translocation z-score, replicate mean": "-5.75 (active)", "p65 translocation z-score, replicate 1": -6.16}
{"gene": "Pop7 (GeneID 74097)", "PubChem SID": "SID315486771", "siRNA vendor or control pool": "ambion single siRNA", "p65 translocation z-score, replicate mean": "-3.04 (active)", "p65 translocation z-score, replicate 1": -4.28}
{"gene": "Pop7 (GeneID 74097)", "PubChem SID": "SID315486772", "siRNA vendor or control pool": "ambion single siRNA", "p65 translocation z-score, replicate mean": -1.88, "p65 translocation z-score, replicate 1": -1.6}
{"gene": "Pop7 (GeneID 74097)", "PubChem SID": "SID315486773", "siRNA vendor or control pool": "ambion single siRNA", "p65 translocation z-score, replicate mean": "-4.45 (active)", "p65 translocation z-score, replicate 1": -5.26}
{"gene": "Pop7 (GeneID 74097)", "PubChem SID": "SID315486774", "siRNA vendor or control pool": "qiagen single siRNA", "p65 translocation z-score, replicate mean": "3.54 (active)", "p65 translocation z-score, replicate 1": 1.98}
{"gene": "Pop7 (GeneID 74097)", "PubChem SID": "SID315486775", "siRNA vendor or control pool": "qiagen single siRNA", "p65 translocation z-score, replicate mean": -0.998, "p65 translocation z-score, replicate 1": -1.45}
{"gene": "Pop7 (GeneID 74097)", "PubChem SID": "SID315486776", "siRNA vendor or control pool": "qiagen single siRNA", "p65 translocation z-score, replicate mean": 0.032, "p65 translocation z-score, replicate 1": 0.623}
